This passage reports binding signal (log2 enrichment (interaction score)) results from article PMC8384837.

Holding throughout (settings): yeast three-hybrid, YBZ-1, SC-Leu-His + 0.5 mM 3-AT, 4 days
Assay [1] addresses T1, PUM1 PUF domain R1-QFR R2-VFQ R7-NPG S863Q + R864F + Q867R + N899V + Y900F + S1079N + N1080P + E1083G (UniProt Q14671).
T1 sequence: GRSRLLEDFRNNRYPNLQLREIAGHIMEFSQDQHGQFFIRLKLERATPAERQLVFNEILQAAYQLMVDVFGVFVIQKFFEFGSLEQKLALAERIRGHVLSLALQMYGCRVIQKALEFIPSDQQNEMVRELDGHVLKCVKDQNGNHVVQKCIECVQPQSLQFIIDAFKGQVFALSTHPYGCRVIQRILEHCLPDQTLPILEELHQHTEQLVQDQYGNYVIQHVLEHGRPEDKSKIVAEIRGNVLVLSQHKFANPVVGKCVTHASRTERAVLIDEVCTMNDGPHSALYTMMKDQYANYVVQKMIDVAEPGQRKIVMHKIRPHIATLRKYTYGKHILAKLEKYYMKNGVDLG

The target in assay [2] is T2, PUM1 PUF domain R2-VFQ R3-THE R4-TFR N899V + Y900F + C935T + R936H + Q939E + N971T + H972F + Q975R (UniProt Q14671).
T2 sequence: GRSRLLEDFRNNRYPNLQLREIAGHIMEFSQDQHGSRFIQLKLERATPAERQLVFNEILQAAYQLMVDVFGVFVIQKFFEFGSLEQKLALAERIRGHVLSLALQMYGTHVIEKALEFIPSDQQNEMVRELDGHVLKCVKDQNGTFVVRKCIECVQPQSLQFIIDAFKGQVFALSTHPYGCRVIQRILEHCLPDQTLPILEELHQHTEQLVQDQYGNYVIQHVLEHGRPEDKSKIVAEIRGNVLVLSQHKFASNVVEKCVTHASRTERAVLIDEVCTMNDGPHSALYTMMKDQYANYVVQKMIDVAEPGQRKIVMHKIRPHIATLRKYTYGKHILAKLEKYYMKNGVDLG

Assay [3] deals with T3, PUM1 PUF domain R3-THE R4-TFR C935T + R936H + Q939E + N971T + H972F + Q975R (UniProt Q14671).
T3 sequence: T2 sequence with V72N, F73Y

For assay [4], the target named is T4, PUM1 PUF domain R3-THE R4-TFR R7-NPG C935T + R936H + Q939E + N971T + H972F + Q975R + S1079N + N1080P + E1083G (Homo sapiens) (UniProt Q14671).
T4 sequence: T2 sequence with V72N, F73Y, S252N, N253P, E256G

Assay [5] has as its target T5, PUM1 PUF domain R5-PHQ R6-SWD C1007P + R1008H + N1043S + Y1044W + Q1047D (UniProt Q14671).
T5 sequence: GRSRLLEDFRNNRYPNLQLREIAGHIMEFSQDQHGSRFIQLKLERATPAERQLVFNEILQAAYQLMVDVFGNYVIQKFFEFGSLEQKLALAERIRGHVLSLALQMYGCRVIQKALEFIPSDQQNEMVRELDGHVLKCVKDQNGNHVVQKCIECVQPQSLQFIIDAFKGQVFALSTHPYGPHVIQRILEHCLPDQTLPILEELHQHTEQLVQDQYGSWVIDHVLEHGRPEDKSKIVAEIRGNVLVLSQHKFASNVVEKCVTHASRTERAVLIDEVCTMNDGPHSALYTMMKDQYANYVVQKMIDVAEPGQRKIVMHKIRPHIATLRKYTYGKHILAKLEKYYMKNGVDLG

Assay [6] addresses T6, PUM1 PUF domain R6-SWD R7-NPG N1043S + Y1044W + Q1047D + S1079N + N1080P + E1083G (Homo sapiens) (UniProt Q14671).
T6 sequence: T5 sequence with P180C, H181R, S252N, N253P, E256G

In assay [7] the target is T7, PUM1 PUF domain R3-THE R4-TFR R7-NPG C935T + R936H + Q939E + N971T + H972F + Q975R + S1079N + N1080P + E1083G (UniProt Q14671).
T7 sequence: T2 sequence with V72N, F73Y, S252N, N253P, E256G

Assay [8] addresses T8, PUM1 PUF domain R6-SWD R7-NPG N1043S + Y1044W + Q1047D + S1079N + N1080P + E1083G (UniProt Q14671).
T8 sequence: T5 sequence with P180C, H181R, S252N, N253P, E256G

Positions count from the first letter of the chain named. This is one part of the list. For some of these results: At the low end of the ranking, values are background and their order means little. For some of these results: The source does not settle which construct or isoform was used.

On to “GGCUAGAACUAGUGGAUCCCCCGGCGCCCGGCGGCUCGAGCCCGGGUAAGUUUAACUAGUCUGCAUGCCGCCGGGCGCCAUGCCUGCAGGUCGACUCUAGAAAACAUG”, for which the binding signal (log2 enrichment (interaction score)) in assay [1] was -5.93; in assay [2], -5.06; in assay [3] it was -7.54; in assay [4], -1.62; in assay [5] it was -8.99; in assay [6], -1.42.

On to “GGCUAGAACUAGUGGAUCCCCCGGCGCCCGGCGGCUCGAGCCCGGGUAAGAGUAAAUAGUCUGCAUGCCGCCGGGCGCCAUGCCUGCAGGUCGACUCUAGAAAACAUG”, for which the binding signal (log2 enrichment (interaction score)) in assay [1] is -6.47; in assay [2], < -5.68; in assay [3], -6.01; in assay [4], -0.31; in assay [5] it was -8.21; in assay [6] it was -1.29.

Consider “GGCUAGAACUAGUGGAUCCCCCGGCGCCCGGCGGCUCGAGCCCGGGUAAGUUUAAGAUGUCUGCAUGCCGCCGGGCGCCAUGCCUGCAGGUCGACUCUAGAAAACAUG”, for which the binding signal (log2 enrichment (interaction score)) was < -5.49 in assay [1]; -4.66 in assay [2]; < -6.22 in assay [3]; -1.4 in assay [4]; -1.34 in assay [6].

As to “GGCUAGAACUAGUGGAUCCCCCGGCGCCCGGCGGCUCGAGCCCGGGUAAGUGUAAAACGUCUGCAUGCCGCCGGGCGCCAUGCCUGCAGGUCGACUCUAGAAAACAUG”, the binding signal (log2 enrichment (interaction score)) in assay [1] was -3.02; in assay [2], -5.47; in assay [3], -6.33; in assay [4], -1.22; in assay [5], -6.69; in assay [6], -0.7.

Turning to “GGCUAGAACUAGUGGAUCCCCCGGCGCCCGGCGGCUCGAGCCCGGGUAAGUUUGCGAAGUCUGCAUGCCGCCGGGCGCCAUGCCUGCAGGUCGACUCUAGAAAACAUG”, the binding signal (log2 enrichment (interaction score)) in assay [1] was -4.45; in assay [2], < -6.01; in assay [3], -7.39; in assay [7] it was -2.09.

In the case of “GGCUAGAACUAGUGGAUCCCCCGGCGCCCGGCGGCUCGAGCCCGGGUAAGUAUAAGUAGUCUGCAUGCCGCCGGGCGCCAUGCCUGCAGGUCGACUCUAGAAAACAUG”, the binding signal (log2 enrichment (interaction score)) is -5.96 in assay [1]; -5.47 in assay [2]; -6.77 in assay [3]; -3.85 in assay [7]; -7.86 in assay [5].

With “GGCUAGAACUAGUGGAUCCCCCGGCGCCCGGCGGCUCGAGCCCGGGUAAGUGUCAGUUGUCUGCAUGCCGCCGGGCGCCAUGCCUGCAGGUCGACUCUAGAAAACAUG”, the binding signal (log2 enrichment (interaction score)) in assay [1] was < -5.71; in assay [2], -5.18; in assay [3] it was -6.48; in assay [7], -2.03; in assay [8], < -2.41.

With “GGCUAGAACUAGUGGAUCCCCCGGCGCCCGGCGGCUCGAGCCCGGGUAAGUCUAAAUCGUCUGCAUGCCGCCGGGCGCCAUGCCUGCAGGUCGACUCUAGAAAACAUG”, the binding signal (log2 enrichment (interaction score)) is -6.21 in assay [1]; -5.73 in assay [2]; -4.9 in assay [3]; -1.42 in assay [4]; -9.76 in assay [5]; -1.58 in assay [6].

Take “GGCUAGAACUAGUGGAUCCCCCGGCGCCCGGCGGCUCGAGCCCGGGUAAGUUUAAAAAGUCUGCAUGCCGCCGGGCGCCAUGCCUGCAGGUCGACUCUAGAAAACAUG”: the binding signal (log2 enrichment (interaction score)) was -3.5 in assay [1]; -6.15 in assay [2]; -6.62 in assay [3]; -2.16 in assay [7]; -8.99 in assay [5]; -2.05 in assay [8].

With “GGCUAGAACUAGUGGAUCCCCCGGCGCCCGGCGGCUCGAGCCCGGGUAAGUGGAAAACGUCUGCAUGCCGCCGGGCGCCAUGCCUGCAGGUCGACUCUAGAAAACAUG”, the binding signal (log2 enrichment (interaction score)) in assay [1] is -4.91; in assay [2], -5.42; in assay [3] it was -7.1; in assay [7], -2.1; in assay [5], -3.01; in assay [6], -0.88.
